PubChem BioAssay AID1224830 – NIAID – 2016

- Test: 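Host factors that control LPS-induced TNF expression in human macrophages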 (primary screen)
- System: human THP-1 monocytic leukaemia cells, TNF dual-luciferase reporter clone, PMA-differentiated to macrophage-like cells
- Reagents: siRNA pool against human genes, 50 nM
- Duration: LPS for 4 h, given about 3 days after siRNA transfection
- Treatment: bacterial LPS (TLR4 ligand), 10 ng/ml
- Measured: 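TNF firefly reporter luminescence divided by renilla, normalised to the plate median, then turned into a robust z-score for each replicate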
- Reading the numbers: TNF reporter robust z-score: higher = stronger TNF reporter response to LPS
- Rule for the call: 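a well is active when its z-score exceeds 2.8 or falls below -1.5; control wells carry no call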
The deposit covers about 18,000 reagents; this is a random part of them. About 2,900 of them (16%) count as active. 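Calls are made per well; low scores hint the gene aids the LPS response, high scores that it dampens it.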 Repeated entries: four replicate wells of each siRNA pool. Reagent sequences are not shown.

no.	Gene	TNF reporter robust z-score	Outcome
1	CHD1	0.07	inactive
2	CHD1	0.12	inactive
3	CHD1	1.62	inactive
4	CHD1	0.8	inactive
5	ESAM	2.49	inactive
6	ESAM	2.9	active
7	ESAM	0.43	inactive
8	ESAM	1.76	inactive
9	DEFB115	1.21	inactive
10	DEFB115	1.77	inactive
11	DEFB115	1.67	inactive
12	DEFB115	0.55	inactive
13	RSRC1	-1.28	inactive
14	RSRC1	-1.11	inactive
15	RSRC1	-1.24	inactive
16	RSRC1	-0.99	inactive
17	ABCC8	-0.22	inactive
18	ABCC8	-0.45	inactive
19	ABCC8	-0.35	inactive
20	ABCC8	0	inactive
21	LARGE2	-1.27	inactive
22	LARGE2	-1.23	inactive
23	LARGE2	-0.54	inactive
24	LARGE2	-1.4	inactive
25	BLCAP	0.47	inactive
26	BLCAP	1.27	inactive
27	BLCAP	-0.05	inactive
28	BLCAP	1.24	inactive
29	H3C15	-0.55	inactive
30	H3C15	-1.13	inactive
31	H3C15	0.01	inactive
32	H3C15	-0.12	inactive
33	NGDN	0.03	inactive
34	NGDN	-0.42	inactive
35	NGDN	-0.93	inactive
36	NGDN	-0.23	inactive
37	ADRA2A	1.43	inactive
38	ADRA2A	1.66	inactive
39	ADRA2A	1.99	inactive
40	ADRA2A	0.91	inactive
41	PUM3	-0.68	inactive
42	PUM3	-0.46	inactive
43	PUM3	-0.54	inactive
44	PUM3	-0.64	inactive
45	DZANK1	-0.93	inactive
46	DZANK1	-0.89	inactive
47	DZANK1	0.01	inactive
48	DZANK1	-0.17	inactive
49	MYO1B	-1.07	inactive
50	MYO1B	-0.99	inactive
51	MYO1B	-1.18	inactive
52	MYO1B	-0.82	inactive
53	CCL22	0.44	inactive
54	CCL22	-0.33	inactive
55	CCL22	-0.73	inactive
56	CCL22	-0.14	inactive
57	ZAR1	-1.06	inactive
58	ZAR1	0.79	inactive
59	ZAR1	0.2	inactive
60	ZAR1	-0.48	inactive
61	OSBPL9	-0.25	inactive
62	OSBPL9	0.03	inactive
63	OSBPL9	0.68	inactive
64	OSBPL9	0.64	inactive
65	CRH	0.44	inactive
66	CRH	1.5	inactive
67	CRH	0.96	inactive
68	CRH	-0.85	inactive
69	ZNF75A	0.22	inactive
70	ZNF75A	0.07	inactive
71	ZNF75A	0.18	inactive
72	ZNF75A	0.99	inactive
73	POMGNT2	-1.95	active
74	POMGNT2	-0.59	inactive
75	POMGNT2	-1.3	inactive
76	POMGNT2	-1.32	inactive

Ordered by “TNF reporter robust z-score” (high to low): some entries from above.
Gene	TNF reporter robust z-score	Outcome
ADRA2A	1.99	inactive
ADRA2A	1.66	inactive
ADRA2A	1.43	inactive
ADRA2A	0.91	inactive
NGDN	0.03	inactive
NGDN	-0.23	inactive
NGDN	-0.42	inactive
PUM3	-0.46	inactive
PUM3	-0.54	inactive
PUM3	-0.68	inactive
NGDN	-0.93	inactive

The list goes on:
no.	Gene	TNF reporter robust z-score	Outcome
77	OR5H6	0.97	inactive
78	OR5H6	2.25	inactive
79	OR5H6	0	inactive
80	OR5H6	0.51	inactive
81	WNK4	1.4	inactive
82	WNK4	2.06	inactive
83	WNK4	-1.21	inactive
84	WNK4	-0.68	inactive
85	REG4	-1.25	inactive
86	REG4	-1.05	inactive
87	REG4	-0.94	inactive
88	REG4	-1.09	inactive
89	PLPP5	0.48	inactive
90	PLPP5	-0.72	inactive
91	PLPP5	-0.62	inactive
92	PLPP5	-0.03	inactive
93	TMOD2	-0.59	inactive
94	TMOD2	-0.09	inactive
95	TMOD2	4.16	active
96	TMOD2	3.53	active
97	TNFRSF19	-1.23	inactive
98	TNFRSF19	0.54	inactive
99	TNFRSF19	0.1	inactive
100	TNFRSF19	-0.29	inactive
101	TRPC3	0.45	inactive
102	TRPC3	-0.41	inactive
103	TRPC3	-1.46	inactive
104	TRPC3	0.69	inactive
105	ZNF550	-1.02	inactive
106	ZNF550	2.1	inactive
107	ZNF550	0.96	inactive
108	ZNF550	-0.63	inactive
109	ERG28	0.54	inactive
110	ERG28	1.33	inactive
111	ERG28	1.34	inactive
112	ERG28	0.2	inactive
113	ANAPC7	-0.36	inactive
114	ANAPC7	-0.22	inactive
115	ANAPC7	0.22	inactive
116	ANAPC7	-0.57	inactive
117	PRX	5.44	active
118	PRX	4.43	active
119	PRX	2.28	inactive
120	PRX	-0.87	inactive
121	STOML1	-0.91	inactive
122	STOML1	-1.15	inactive
123	STOML1	-1	inactive
124	STOML1	-0.81	inactive
125	GPR108	1.63	inactive
126	GPR108	1.26	inactive
127	GPR108	0.85	inactive
128	GPR108	2.17	inactive
129	EEF1AKMT1	-0.4	inactive
130	EEF1AKMT1	-0.35	inactive
131	EEF1AKMT1	-1.54	active
132	EEF1AKMT1	-1.13	inactive
133	PDPK1	-1.26	inactive
134	PDPK1	-1.49	inactive
135	PDPK1	-0.27	inactive
136	PDPK1	-1.09	inactive
137	GNRHR	3.8	active
138	GNRHR	0.71	inactive
139	GNRHR	4.66	active
140	GNRHR	2.2	inactive
